Measurements published in paper PMC10119135.
No constants are given. Whether binding was seen depends on the method and setting. In cells and extracts the contact can be indirect. Some binding calls cover weakened binding; strength is not graded here.

Chains of the proteins cited; added tags and fusions are not shown.
UniProt P35240: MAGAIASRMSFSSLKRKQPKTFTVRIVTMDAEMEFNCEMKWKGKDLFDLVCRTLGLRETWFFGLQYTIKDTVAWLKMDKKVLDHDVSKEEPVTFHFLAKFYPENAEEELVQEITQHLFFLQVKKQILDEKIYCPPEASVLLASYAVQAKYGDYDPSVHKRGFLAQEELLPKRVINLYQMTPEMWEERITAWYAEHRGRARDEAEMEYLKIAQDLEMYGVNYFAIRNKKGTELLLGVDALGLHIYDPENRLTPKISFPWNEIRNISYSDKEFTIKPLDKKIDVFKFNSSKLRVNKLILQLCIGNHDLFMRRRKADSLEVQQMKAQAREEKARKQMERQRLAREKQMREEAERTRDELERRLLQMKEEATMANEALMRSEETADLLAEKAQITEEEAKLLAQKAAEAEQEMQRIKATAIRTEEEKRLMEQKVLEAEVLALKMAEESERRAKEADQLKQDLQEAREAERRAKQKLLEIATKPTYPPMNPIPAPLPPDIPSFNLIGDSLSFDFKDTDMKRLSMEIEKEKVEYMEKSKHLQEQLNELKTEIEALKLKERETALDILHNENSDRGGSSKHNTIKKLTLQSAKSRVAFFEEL

Columns and labels:
SFB-LATS1 = biological target: T1, SFB-LATS1 (UniProt O95835); assay: co-IP; SFB-LATS1, HA-NF2 and LncRIM co-transfected into MCF-7 cells with or without FAC (200 uM) for 24 h; SFB-LATS1 immunoprecipitated by Flag beads
T1 sequence: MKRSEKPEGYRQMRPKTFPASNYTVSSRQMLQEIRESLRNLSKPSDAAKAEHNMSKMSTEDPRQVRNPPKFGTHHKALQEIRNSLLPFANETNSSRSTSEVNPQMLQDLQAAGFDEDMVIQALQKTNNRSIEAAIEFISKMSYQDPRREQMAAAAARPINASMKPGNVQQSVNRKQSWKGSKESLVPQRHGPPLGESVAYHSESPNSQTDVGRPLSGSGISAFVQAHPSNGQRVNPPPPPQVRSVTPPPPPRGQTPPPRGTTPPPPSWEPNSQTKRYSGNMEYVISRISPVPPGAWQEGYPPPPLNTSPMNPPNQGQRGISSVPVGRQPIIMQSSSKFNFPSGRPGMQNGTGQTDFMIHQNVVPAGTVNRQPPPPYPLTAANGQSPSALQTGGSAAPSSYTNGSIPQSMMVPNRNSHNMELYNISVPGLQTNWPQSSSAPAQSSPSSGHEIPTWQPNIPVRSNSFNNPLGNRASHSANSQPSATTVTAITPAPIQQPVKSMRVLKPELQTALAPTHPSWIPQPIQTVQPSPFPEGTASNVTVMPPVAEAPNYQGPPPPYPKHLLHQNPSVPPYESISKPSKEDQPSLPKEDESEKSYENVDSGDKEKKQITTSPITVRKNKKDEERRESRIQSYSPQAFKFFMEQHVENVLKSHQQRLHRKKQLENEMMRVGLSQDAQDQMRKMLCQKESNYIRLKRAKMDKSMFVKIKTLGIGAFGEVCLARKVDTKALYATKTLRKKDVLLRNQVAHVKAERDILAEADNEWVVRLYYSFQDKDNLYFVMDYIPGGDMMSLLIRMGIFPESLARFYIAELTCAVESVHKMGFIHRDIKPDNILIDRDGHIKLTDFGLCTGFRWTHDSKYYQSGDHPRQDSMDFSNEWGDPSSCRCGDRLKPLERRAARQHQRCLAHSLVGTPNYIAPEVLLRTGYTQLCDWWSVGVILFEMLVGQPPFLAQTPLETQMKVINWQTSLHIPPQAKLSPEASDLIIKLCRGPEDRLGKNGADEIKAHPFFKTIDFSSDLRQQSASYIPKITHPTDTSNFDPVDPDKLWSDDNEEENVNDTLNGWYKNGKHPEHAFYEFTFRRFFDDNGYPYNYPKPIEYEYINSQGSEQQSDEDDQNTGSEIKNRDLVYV

LATS1 = biological target: T2, LATS1 (UniProt O95835); assay: co-IP; MCF-7 cell lysates in NETN buffer; cells with LncRIM overexpressed, knocked down, or knocked down and restored with LncRIM truncations (S1, S2, S3)
T2 sequence: T1 sequence

Row | binding (SFB-LATS1) | binding (LATS1) | Substance
1 | binds | – | HA-NF2 (from UniProt P35240 1-595)
2 | – | binds | NF2 (from UniProt P35240 1-595)
